This note sets out measurements from article PMC9307837.

Amino acid sequences for entries named in this document (tags omitted).
UniProt O88444: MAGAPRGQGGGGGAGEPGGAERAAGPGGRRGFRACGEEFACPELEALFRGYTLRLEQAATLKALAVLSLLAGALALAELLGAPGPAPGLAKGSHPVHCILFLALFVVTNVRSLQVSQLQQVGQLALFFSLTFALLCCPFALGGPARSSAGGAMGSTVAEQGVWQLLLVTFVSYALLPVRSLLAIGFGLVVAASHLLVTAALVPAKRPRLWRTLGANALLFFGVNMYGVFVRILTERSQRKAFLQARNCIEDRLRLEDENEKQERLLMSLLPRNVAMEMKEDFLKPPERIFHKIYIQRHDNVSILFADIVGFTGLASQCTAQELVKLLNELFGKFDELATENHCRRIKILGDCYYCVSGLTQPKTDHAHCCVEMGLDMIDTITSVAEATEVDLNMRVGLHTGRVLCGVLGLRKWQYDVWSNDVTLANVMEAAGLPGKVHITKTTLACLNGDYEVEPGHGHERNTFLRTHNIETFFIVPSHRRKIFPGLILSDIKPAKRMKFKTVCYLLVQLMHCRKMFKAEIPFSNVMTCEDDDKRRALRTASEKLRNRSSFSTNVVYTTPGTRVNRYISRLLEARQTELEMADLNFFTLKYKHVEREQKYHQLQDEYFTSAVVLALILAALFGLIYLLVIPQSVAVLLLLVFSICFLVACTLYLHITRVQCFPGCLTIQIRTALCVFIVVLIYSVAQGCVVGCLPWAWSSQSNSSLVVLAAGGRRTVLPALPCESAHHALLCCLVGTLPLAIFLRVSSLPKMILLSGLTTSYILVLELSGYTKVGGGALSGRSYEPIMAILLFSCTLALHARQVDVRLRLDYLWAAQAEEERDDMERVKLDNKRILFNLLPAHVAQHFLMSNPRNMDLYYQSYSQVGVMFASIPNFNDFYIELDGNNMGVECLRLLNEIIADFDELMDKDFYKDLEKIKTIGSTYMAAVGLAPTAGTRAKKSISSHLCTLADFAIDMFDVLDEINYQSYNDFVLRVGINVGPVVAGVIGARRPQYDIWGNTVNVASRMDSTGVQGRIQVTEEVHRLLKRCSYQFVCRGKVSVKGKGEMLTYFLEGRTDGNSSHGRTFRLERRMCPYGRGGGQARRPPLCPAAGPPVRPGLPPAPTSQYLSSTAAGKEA

Results are given in words; binding and its absence hold for the method and conditions named. Binding seen in cells or lysates may run through a third protein. These calls come from enrichment with a bait or labelling near it, and not all partners need be listed.

The target in this experiment is T1, Calcium/calmodulin-dependent protein kinase IV (CaMK4), mouse (mouse (endogenous in RAW264.7 and BMDMs)) (UniProt P08414).
T1 sequence: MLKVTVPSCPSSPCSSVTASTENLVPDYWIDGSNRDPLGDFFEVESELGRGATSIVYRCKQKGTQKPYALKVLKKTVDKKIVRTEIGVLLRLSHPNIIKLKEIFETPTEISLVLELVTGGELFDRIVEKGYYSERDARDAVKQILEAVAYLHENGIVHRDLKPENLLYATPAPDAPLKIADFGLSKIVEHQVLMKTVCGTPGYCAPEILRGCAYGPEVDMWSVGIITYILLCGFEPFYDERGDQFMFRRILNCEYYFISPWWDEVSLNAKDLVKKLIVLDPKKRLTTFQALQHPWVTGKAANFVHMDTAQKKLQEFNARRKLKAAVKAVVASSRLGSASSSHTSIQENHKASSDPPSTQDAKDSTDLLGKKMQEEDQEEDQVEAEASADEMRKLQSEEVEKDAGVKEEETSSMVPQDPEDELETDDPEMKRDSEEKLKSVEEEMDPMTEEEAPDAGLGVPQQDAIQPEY
Briefly: affinity purification with mass spectrometry; co-IP with CaMK4 Ab or rabbit IgG from RAW264.7 cells, supernatants analysed by LC-MS/MS.

For “adenylyl cyclase 1 (ADCY1), mouse (from UniProt O88444 1-1118) (enzyme)”, the binding result is given as “binds”.
